{"sequences": {"note": "The chains behind the UniProt entries cited, without tags or fusion partners. Where a name states a change or a piece, a line headed by the entry shows the natural chain unless it says otherwise.", "UniProt P18054": "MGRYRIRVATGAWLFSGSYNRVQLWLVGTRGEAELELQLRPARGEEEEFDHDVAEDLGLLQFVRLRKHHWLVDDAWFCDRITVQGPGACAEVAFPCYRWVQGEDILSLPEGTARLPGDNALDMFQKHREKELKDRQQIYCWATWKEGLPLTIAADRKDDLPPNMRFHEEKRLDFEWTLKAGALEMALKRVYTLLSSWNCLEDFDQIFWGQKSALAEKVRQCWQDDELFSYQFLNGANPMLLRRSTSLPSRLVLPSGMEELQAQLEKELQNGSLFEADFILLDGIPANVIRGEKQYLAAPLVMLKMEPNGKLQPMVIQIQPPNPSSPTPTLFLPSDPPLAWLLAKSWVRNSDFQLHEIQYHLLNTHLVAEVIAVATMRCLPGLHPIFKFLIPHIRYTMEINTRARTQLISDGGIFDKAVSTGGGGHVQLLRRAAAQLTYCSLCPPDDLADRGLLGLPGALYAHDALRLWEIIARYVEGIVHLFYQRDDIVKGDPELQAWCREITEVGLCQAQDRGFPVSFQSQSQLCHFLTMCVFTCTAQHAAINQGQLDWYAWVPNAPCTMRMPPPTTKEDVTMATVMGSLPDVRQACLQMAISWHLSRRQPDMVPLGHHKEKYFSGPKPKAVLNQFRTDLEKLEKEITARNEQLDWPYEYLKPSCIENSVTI"}, "source": "PubChem BioAssay AID1671190", "about": "(National Center for Advancing Translational Sciences (NCATS), 2021)", "note": "In all, about 580,000 compounds went through this assay and about 6,100 (1.1%) were called active. Inconclusive results, whose numbers are uncertain, are shown with a selection of clear calls. Calls come from the whole dose curve; as a rule, active = well fitted inhibition curve with a large enough effect; inconclusive = small, poorly fitted or top-dose-only effect, or another doubt; inactive = no such curve, though single readings can be large or run the other way. Potencies beside an inconclusive call are fits to weak or partial responses and may not hold up. Potency is the fitted concentration of half-maximal effect."}
{"molecular_target": "Polyunsaturated fatty acid lipoxygenase ALOX12 (Homo sapiens) (UniProt P18054)", "assay": "Primary qHTS assay for inhibitors of human arachidonate 12S-lipoxygenase (ALOX12): Round 2", "conditions": "purified 12hLO, xylenol orange hydroperoxide absorbance; series mostly up to 108 µM", "how_it_was_run": "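Purified human 12hLO (150 nM final) in 25 mM Hepes, 0.01% Triton X-100, pH 7.0 was preincubated 15 min at room temperature with compound. Then 40 uM arachidonic acid was added, 30 min. Hydroperoxide was read by Fe-XO absorbance ratio 573/405 nm.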"}
{"smiles": "CC(C)CC(=O)N1CCOCC12CCN(CCCc1ccccc1)CC2", "Potency": "inactive"}
{"smiles": "COC(=O)[C@@H]1[C@@H](CO)[C@@H]2Cn3c(ccc(Br)c3=O)[C@@H]2N1C(=O)Cc1cccnc1", "Potency": "inconclusive: 44.7 µM [inhibitor, partial curve, poor fit]"}
{"smiles": "CCc1ccc(C2c3cccn3-c3c(c(C)nn3-c3ccccc3)CN2C(=O)NCC(=O)OC)cc1", "note": "(stereo not given)", "Potency": "inconclusive: 35.5 µM [inhibitor, full curve, poor fit]"}
{"smiles": "Cc1noc(C)c1CCC(=O)NC1CCCc2c1[nH]c1ccc(F)cc21", "note": "(stereo not given)", "Potency": "inactive"}
{"smiles": "O=C(O)c1ccc(F)c(Br)c1", "Potency": "inactive"}
{"smiles": "Fc1ccc(C2Cc3ccccc3N2)cc1", "note": "(stereo not given)", "Potency": "inconclusive: 1.26 µM [inhibitor, full curve, poor fit]"}
{"smiles": "CC(C)CC(=O)Nc1nc2ccc(S(C)(=O)=O)cc2s1", "Potency": "inactive"}
{"smiles": "c1ccc2c(c1)[nH]c1c(N3CCCC3)ncnc12", "Potency": "inactive"}
{"smiles": "Cc1cc(C(=O)NCCCC(=O)O)c(C)o1", "Potency": "inactive"}
{"smiles": "CSc1nccc(-c2sc(SC)c(C#N)c2-c2ccccc2)n1", "Potency": "inconclusive: 112 µM [inhibitor, single point]"}
{"smiles": "COc1ccc(NC(=O)CSc2ccc(F)cc2)cc1S(=O)(=O)N1CCCCC1", "Potency": "inactive"}
{"smiles": "CNS(=O)(=O)c1ccc(CCC(=O)N2Cc3nnc(C)n3C(C)C2)cc1", "note": "(stereo not given)", "Potency": "inconclusive: 12.6 µM [inhibitor, full curve, poor fit]"}
{"smiles": "Cc1ccc(Nc2c(-c3ccco3)nc3ccc(C)cn23)cc1", "Potency": "inactive"}
{"smiles": "Cc1ccc(NS(=O)(=O)c2ccccc2)c2c1CC(C)(C)O2", "Potency": "inconclusive: 100 µM [inhibitor, partial curve, poor fit]"}
{"smiles": "OC[C@@H]1CN(Cc2cccc3ccccc23)C[C@H](n2cnc3c(NCc4ccco4)ncnc32)O1", "Potency": "active: 35.5 µM"}
{"smiles": "Cc1ccc(N/C=C(\\[N+](=O)[O-])S(=O)(=O)c2ccccc2)cc1", "Potency": "inactive"}
{"smiles": "Cc1cc(C)c(S(=O)(=O)Nc2ccc(O)cc2)c(C)c1", "Potency": "inconclusive: 89.1 µM [inhibitor, single point]"}
{"smiles": "Cc1ccccc1-c1cc(C(=O)NCc2ccco2)nn1CC1CC(c2cccc([N+](=O)[O-])c2)=NO1", "note": "(stereo not given)", "Potency": "inconclusive: 31.6 µM [inhibitor, partial curve]"}
{"smiles": "O=C(CN1C=NS(=O)(=O)c2ccccc21)Nc1ccc(Br)cc1", "Potency": "inconclusive: 28.2 µM [inhibitor, partial curve, poor fit]"}
{"smiles": "COc1ccc(/C=C2\\SC(=S)N(CCCC(=O)Nc3cccc(C(=O)O)c3)C2=O)cc1OC", "Potency": "inconclusive: 44.7 µM [inhibitor, single point]"}
